{"sequences": {"note": "Protein sequences, listed by entry. Tags and fused reporters are not part of them. Residues count along the entry.", "UniProt P12821, 642-1238 N695Q/N760Q/N942Q/N1191Q": "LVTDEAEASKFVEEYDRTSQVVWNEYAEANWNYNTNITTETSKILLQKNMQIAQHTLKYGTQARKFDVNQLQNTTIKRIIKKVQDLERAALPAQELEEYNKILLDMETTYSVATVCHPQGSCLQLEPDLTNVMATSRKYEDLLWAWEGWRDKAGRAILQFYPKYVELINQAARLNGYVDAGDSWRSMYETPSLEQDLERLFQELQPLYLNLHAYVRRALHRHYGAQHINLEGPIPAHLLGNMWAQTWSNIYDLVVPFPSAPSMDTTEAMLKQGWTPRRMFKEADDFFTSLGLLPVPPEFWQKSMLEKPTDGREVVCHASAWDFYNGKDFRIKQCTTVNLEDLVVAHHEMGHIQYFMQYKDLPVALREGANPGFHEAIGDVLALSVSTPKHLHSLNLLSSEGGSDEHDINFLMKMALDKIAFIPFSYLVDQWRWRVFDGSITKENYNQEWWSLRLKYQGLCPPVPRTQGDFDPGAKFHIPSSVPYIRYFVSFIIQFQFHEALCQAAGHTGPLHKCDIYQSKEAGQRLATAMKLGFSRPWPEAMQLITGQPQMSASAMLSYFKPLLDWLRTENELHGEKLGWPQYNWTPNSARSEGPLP"}, "source": "paper PMC12531861", "about": "“Ciprofloxacin Inhibits Angiotensin I‑Converting Enzyme (ACE) Activity by Binding at the Exosite, Distal to the Catalytic Pocket” (ACS Bio & Med Chem Au, 2025)", "biological_target": "T1, human somatic angiotensin I-converting enzyme, C-domain (cACE) (Homo sapiens, UniProt P12821, N1191Q/N695Q/N760Q/N942Q)", "T1 construct": "gene ACE", "assay": "biochemical", "data": [{"smiles": "O=C(O)c1cn(C2CC2)c2cc(N3CCNCC3)c(F)cc2c1=O", "note": "[Cip, Ciprofloxacin]", "values": [{"measurement": "Ki", "result": 33.8, "unit": "µM"}]}]}
